The campaign covered roughly 300,000 compounds. About 3,700 (1.2%) were called active. The shares of active, inactive and inconclusive entries below differ from those in the screen. Calls come from the whole dose curve; tested in HEK293 cells. Where the call is inconclusive, the potency comes from a doubtful curve fit.
assay: qHTS for Inhibitors of binding or entry into cells for Lassa Virus; conditions: Lassa virus pseudotype entry inhibition, cell reporter; series mostly up to 37.9 µM; note: nearly all actives have a fitted effect of over 50% in size
Potency is the fitted concentration of half-maximal effect.

| Structure (SMILES) | Potency |
| --- | --- |
| CCC(C)n1c(=N)c(C(=O)NCc2ccco2)cc2c(=O)n3cc(C)ccc3nc21 (stereo unspecified) | inconclusive: 35.5 µM [inhibitor, single point] |
| CCOC(=O)c1cccc(Nc2ncnc3ccccc23)c1 | inactive |
| Cc1cc2ccccn2c1C(=O)c1ccc([N+](=O)[O-])o1 | inconclusive: 25.1 µM [inhibitor, single point] |
| O/N=C/c1ccc2ccccc2n1 | inactive |
| CC(C)c1ccc(C(=O)CC2(O)C(=O)N(CCc3ccccc3)c3ccc(Cl)cc32)cc1 (stereo unspecified) | inconclusive: 7.94 µM [inhibitor, partial curve] |
| Cc1cc(Cl)c(S(=O)(=O)N2CCCCCC2)cc1OCC(N)=O | inactive |
| CNC(=O)C1CCC(Cn2c(=O)c3sccc3n(CC(=O)Nc3cc(C)cc(C)c3)c2=O)CC1 (stereo unspecified) | inactive |
| O=C(/C=C/c1ccc(O)c(O)c1)OCCc1ccccc1 | inconclusive: 8.2 µM [inhibitor, partial curve, poor fit] |
| COc1ccc(C(=O)N/N=C(/C)c2ccc(N3CCCCC3)cc2)cc1 | inconclusive: 1.84 µM [inhibitor, partial curve, poor fit] |
| CC1(C(=O)N(Cc2ccccc2)Cc2ccccc2)CC1(Br)Br (stereo unspecified) | inconclusive: 2 µM [activator, full curve] |
| Cc1ccc([N+](=O)[O-])cc1NC(=O)C(C)NS(=O)(=O)c1ccc(F)cc1 (stereo unspecified) | inactive |
| CC(Oc1ccc(Br)cc1)C(=O)Nc1ccc(S(=O)(=O)NC2=NCCCCC2)cc1 (stereo unspecified) | inconclusive: 11.2 µM [inhibitor, partial curve] |
| CCc1c(C)sc(NC(=O)Cn2nc(C(F)(F)F)c3c2CCCC3)c1C#N | inconclusive: 14.6 µM [inhibitor, partial curve] |
| COC(=O)c1sccc1NC(=S)Nc1cc(C)cc(C)c1 | inactive |
| c1ccc(C2COC(c3cccs3)=N2)cc1 (stereo unspecified) | inactive |
| c1ccc(-c2nnc(-c3ccccn3)c(-c3ccccn3)n2)nc1 | inactive |
| S=C(NCc1ccccc1)N1CCn2cccc2C1c1ccncc1 (stereo unspecified) | inactive |
| COc1cccc(N/C=C/C(=O)c2ccc(Cl)cc2)c1 | inconclusive: 2.24 µM [inhibitor, partial curve, poor fit] |
| CSc1ccc(CN(C)CC(=O)Nc2ccccc2Br)cc1 | inactive |
| O=C(Cc1cccc2ccccc12)NNC(=O)Nc1cccc(Cl)c1 | inconclusive: 2.59 µM [inhibitor, partial curve, poor fit] |
| CCN(CCCNC(=O)COc1cc(=O)n(CC)c2ccccc12)c1ccccc1 | inconclusive: 32.6 µM [inhibitor, partial curve, poor fit] |

Some values from above.
Entry for `O=C(Cc1cccc2ccccc12)NNC(=O)Nc1cccc(Cl)c1` under Potency: inconclusive: 2.59 µM [inhibitor, partial curve, poor fit]
Entry for `c1ccc(C2COC(c3cccs3)=N2)cc1` (stereo unspecified) under Potency: inactive

Source: PubChem BioAssay AID540256 (National Center for Advancing Translational Sciences (NCATS), 2011)
